Some of the results follow. Further columns of the screen follow, without active or inactive calls. Most of these compounds were active or inconclusive in the main read-out, so they are no random draw. Words in brackets tell the shape of the fitted curve; partial curves, single points and poor fits give uncertain potencies.
Assay: qHTS Assay for Lipid Storage Modulators in Drosophila S3 Cells;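 as to cell number change: cells counted by Cell Tracker Red CMTPX staining in the red channel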
Conditions: BODIPY lipid droplet fluorescence, 18-24 h; for cell number change: measured here: cell count max response, cells fed with added oleic acid
Method in brief: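 Laser-scanning cytometry quantifies lipid droplet accumulation (500–530 nm total intensity; droplet/cell object ratio) in oleic acid-fed (400 uM added) Drosophila S3 cells treated with a concentration series. 20 uM Triacsin C defined 100% inhibition.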

[1] = measured here: cell number channel AC50, cells fed with added oleic acid
[2] = measured here: lipid fluorescence (Fed channel) AC50, cells fed with added oleic acid

For `CCC(C(=O)NNC(=O)c1cnccn1)c1ccccc1` (centres undefined), the cell number change was -8.83%, the AC50 [1] was 6510 nM [rising, single point] and the AC50 [2] was 5.8 nM [falling, full curve, poor fit].

In the case of `Cc1cccc(-c2noc(CCCC(=O)NCC3CCCO3)n2)c1` (centres undefined), the cell number change is reported as -5.22% and the AC50 [2] is reported as 29100 nM [falling, single point].

For `Cc1cccc(NC(=O)C(=O)NCCCN2CCOCC2)c1`, the cell number change was 11%.

For `CC(=O)Nc1ccc(NC(=O)CC2SC(=O)N(CC(=O)c3ccccc3)C2=O)cc1` (centres undefined), the cell number change was 29.5% and the AC50 [2] was 20600 nM [rising, single point].

Work on `CC(=O)C1=C(O)C(=O)N(CCC(=O)O)C1c1cccc(F)c1` (centres undefined) yielded a cell number change of -18.7%.

In the case of `Cc1ccc(NC(=O)c2cc(S(=O)(=O)c3ccccc3)ccc2Cl)cc1`, the cell number change is reported as 18.8% and the AC50 [2] is reported as 2590 nM [rising, full curve].

With `CCC(=O)Nc1ccc(N2CCCCC2)c(C(=O)Nc2ccc(OC)cc2)c1` the cell number change was 9.27% and the AC50 [1] was 651 nM [rising, single point].

With `Cc1nnc(-c2ccc(Oc3ccc(C)c(C)c3)c([N+](=O)[O-])c2)o1` the cell number change was 13.3% and the AC50 [2] was 82 nM [rising, full curve, poor fit].

For `C=CCSc1nnc(NC(=O)CSc2nc(CCC)cc(=O)[nH]2)s1`, the AC50 [1] was 580 nM [rising, single point].

In the case of `C=CCNC(=S)N/N=C(\C)c1ccc(OC)cc1`, the cell number change is reported as 8.88% and the AC50 [2] is reported as 6510 nM [falling, partial curve, poor fit].

For `CCN1CCN(CC(O)COc2ccc(C)c(C)c2)CC1` (centres undefined), the cell number change was 2.6% and the AC50 [2] was 65.1 nM [falling, full curve, poor fit].

With `Cc1cc(NC(=O)C(C)SCC(=O)N(C)CC(=O)Nc2ccccc2C(F)(F)F)no1` (centres undefined) the cell number change was 22.9%.

For `CCC(=O)Nc1ccc(S(=O)(=O)NCCc2ccccc2)cc1`, the cell number change was 180% and the AC50 [1] was 20600 nM [rising, single point].

With `CCc1ccc(CN2CCN(C(=O)c3ccco3)CC2)cc1` the cell number change was 20.4% and the AC50 [2] was 291 nM [rising, partial curve, poor fit].

For `CC(Sc1nc2sccc2c(=O)n1-c1ccccc1)C(N)=O` (centres undefined), the cell number change was 10.4% and the AC50 [2] was 580 nM [rising, single point].

In the case of `COc1ccc(CC(=O)NC(C)c2nnc(SCCOc3ccc(OC)cc3)n2C)cc1` (centres undefined), the cell number change is reported as -44.3%, the AC50 [1] is reported as 5800 nM [falling, full curve] and the AC50 [2] is reported as 6510 nM [falling, single point].

With `COC(=O)c1cc2sccc2n1Cc1nc(-c2cccc(Cl)c2)oc1C` the AC50 [2] was 1840 nM [rising, partial curve].

With `Cc1cc(OCc2cc(C(=O)N(C)C(C)c3ccccn3)no2)cc(C)c1Cl` (centres undefined) the cell number change was -28.1% and the AC50 [2] was 29100 nM [falling, single point].

In the case of `CCOc1ccc(C(=O)Nc2cc(Cl)ccc2-n2cncn2)cc1OC`, the cell number change is reported as 3.18%, the AC50 [1] is reported as 1840 nM [rising, partial curve, poor fit] and the AC50 [2] is reported as 2590 nM [rising, full curve].

In the case of `CC(=O)Nc1ccc(S(=O)(=O)NCC(=O)NNC(=O)COc2ccccc2Cl)cc1`, the cell number change is reported as 36.2% and the AC50 [1] is reported as 11600 nM [rising, partial curve, poor fit].

In the case of `O=C(COC(=O)c1cccc(OC(F)F)c1)NC(=O)NC1CCCCC1`, the cell number change is reported as -40.6% and the AC50 [1] is reported as 5800 nM [falling, partial curve].

`CCOC(=O)c1ccc(-n2ccnc2)c(NC(=O)c2ccc(C(C)(C)C)cc2)c1` gave a cell number change of 26.7%.

In the case of `C=CCNC(=O)C1CCC(C(=O)NCC=C)CC1` (centres undefined), the AC50 [1] is reported as 291 nM [rising, full curve, poor fit] and the AC50 [2] is reported as 130 nM [rising, full curve, poor fit].

In the case of `COc1cc2nc(C)sc2cc1SC`, the cell number change is reported as -6.14% and the AC50 [1] is reported as 2060 nM [rising, partial curve].

With `COc1ccc(Cc2nc3ccc(C(=O)N(C)CCn4ccnc4)cc3o2)cc1OC` the cell number change was -18.1% and the AC50 [1] was 130 nM [falling, full curve, poor fit].

Work on `COC(=O)[C@]1(C)N[C@H](c2ccc(-c3ccc(Cl)c(Cl)c3)c(OC)c2)[C@@H]2C(=O)N(C)C(=O)[C@@H]21` yielded a cell number change of -20%.

With `COc1cc(Cl)c(C)cc1NC(=O)CCNC(=O)c1ccco1` the cell number change was 32.1% and the AC50 [1] was 103 nM [rising, full curve, poor fit].

For `CCOC(=O)c1cc(S(=O)(=O)NCCc2ccccc2)cn1C`, the AC50 [2] was 20600 nM [rising, single point].

With `CC1CC(C)(C)N(C(=O)CSc2ccc(-c3ccc(F)cc3)nn2)c2ccccc21` (centres undefined) the cell number change was -14.5% and the AC50 [2] was 326 nM [falling, full curve, poor fit].

Work on `O=C(Nc1nnc(-c2cccs2)s1)c1cccc(F)c1` yielded a cell number change of 18%.

For `COc1ccc(-c2cc(C(=O)NC(Cc3c[nH]c4ccccc34)C(=O)O)c(C)o2)cc1OC` (centres undefined), the cell number change was -3.26%, the AC50 [1] was 6510 nM [rising, single point] and the AC50 [2] was 6510 nM [rising, single point].

With `CCC(OC(=O)C(CC(C)C)NC(=O)c1ccccc1)C(=O)Nc1nnc(C)s1` (centres undefined) the cell number change was 7.46% and the AC50 [1] was 920 nM [rising, partial curve].

For `CC(C)(C)C1CCC(OCC(O)CN2CCCC2)CC1` (centres undefined), the cell number change was -66.9% and the AC50 [1] was 29100 nM [falling, single point].

In the case of `CN(CC(=O)Nc1cccc(F)c1)C(=O)c1ccc(COc2ccccc2)o1`, the cell number change is reported as 24.5% and the AC50 [1] is reported as 3260 nM [rising, single point].

With `CC(C)[C@H](NC(=O)c1ccc(C(C)(C)C)cc1)C(=O)Nc1nnc(C2CC2)s1` the cell number change was -12.3% and the AC50 [2] was 6510 nM [falling, partial curve, poor fit].

For `Cn1cccc1C1NC(=O)c2c(sc3c2CCC(C(C)(C)C)C3)N1` (centres undefined), the cell number change was -28.6%, the AC50 [1] was 731 nM [falling, full curve, poor fit] and the AC50 [2] was 6510 nM [falling, single point].

For `O=C1C2CC(O)CN2C(=O)N1c1ccccc1` (centres undefined), the cell number change was -24.3%, the AC50 [1] was 103 nM [falling, full curve, poor fit] and the AC50 [2] was 146 nM [falling, full curve, poor fit].

With `COc1ccc(CNc2nc(NCc3ccc(OC)c(OC)c3)n(C(=O)c3cccs3)n2)cc1OC` the cell number change was -18.1% and the AC50 [2] was 411 nM [rising, full curve].

With `CCOC(=O)c1c(C)[nH]c(C(=O)NCc2ccccc2OC)c1C` the cell number change was -6.14% and the AC50 [2] was 1640 nM [rising, full curve].

With `COc1ccc(Nc2ncccc2C(=O)NCc2ccccc2)cc1` the AC50 [1] was 461 nM [rising, single point].

With `Nc1nonc1-c1noc(COc2ccccc2Cl)n1` the cell number change was 31% and the AC50 [1] was 29100 nM [rising, single point].

For `NC(=O)C1CCN(Cc2ccc(OCc3ccccc3)cc2)CC1`, the cell number change was 17.1% and the AC50 [2] was 1300 nM [rising, full curve].

With `COC(=O)CSc1nc(N)nc(C)c1Br` the cell number change was -8.19% and the AC50 [2] was 29100 nM [rising, single point].

`COc1ccc(S(=O)(=O)NCCSC(C)(C)C)c(Cl)c1Cl` gave a cell number change of 9.89%.

For `COc1cccc(C(=O)Nc2nnc(C3CCCO3)s2)c1` (centres undefined), the AC50 [2] was 731 nM [falling, full curve].

`CCN(CC(=O)NCc1cccs1)C(=O)c1cccc(S(=O)(=O)N2CCc3ccccc32)c1` gave a cell number change of 23.9%.

In the case of `CC(=O)N1CCN(c2ccc(Nc3nc(C)nc4c3oc3ccccc34)cc2)CC1`, the cell number change is reported as -2.42% and the AC50 [2] is reported as 29100 nM [rising, partial curve, poor fit].

For `CCCCCCCC[n+]1cccc(C(=O)N(CC)CC)c1`, the cell number change was 0.549% and the AC50 [2] was 259 nM [falling, partial curve, poor fit].

In the case of `Cc1ccc(CN(c2ccc(C(=O)NCc3ccccn3)cc2)S(C)(=O)=O)cc1`, the AC50 [1] is reported as 2910 nM [rising, single point].

In the case of `CCCC1(c2ccccc2)NC(=O)N(CC(=O)N2CC(=O)Nc3ccccc32)C1=O` (centres undefined), the cell number change is reported as -0.211%.

With `Cc1cc(C)n(-c2nncn2/N=C/c2ccccc2F)n1` the cell number change was 20.5% and the AC50 [2] was 731 nM [rising, single point].

With `C/C(=N\NC(=O)CN(c1ccccc1Br)S(C)(=O)=O)c1cccs1` the cell number change was -59.6%, the AC50 [1] was 6510 nM [falling, partial curve] and the AC50 [2] was 13000 nM [falling, partial curve].

With `COc1ccccc1-n1cnnc1SCC(=O)N1CCN(S(=O)(=O)c2ccccc2)CC1` the AC50 [1] was 6510 nM [rising, single point] and the AC50 [2] was 3260 nM [rising, full curve].

For `Cc1cnc(NC(=O)CSc2nnc(COc3c(C)cccc3C)o2)s1`, the cell number change was -18.9% and the AC50 [2] was 29100 nM [falling, single point].

With `Cc1cc(S(=O)(=O)Nc2c(C)nn(C)c2C)c(Cl)cc1Cl` the cell number change was 8.19% and the AC50 [1] was 5800 nM [falling, single point].

For `CCCOC(=O)CCCCCCCCC(O)CN1CCCCC1` (centres undefined), the cell number change was -74.2%, the AC50 [1] was 16400 nM [falling, single point] and the AC50 [2] was 13000 nM [falling, partial curve].

With `CCCCN(CC)c1nc(N)c2c(N)nc(OCC)cc2c1C#N` the AC50 [1] was 1460 nM [rising, partial curve] and the AC50 [2] was 580 nM [rising, full curve].

With `O=C(CCC1CCCCC1)Nc1nncs1` the cell number change was -16.5% and the AC50 [2] was 23100 nM [rising, single point].

Work on `CCCC(C(=O)NC(C)(C)C)N(CCN1CCOCC1)C(=O)CNS(=O)(=O)c1ccccc1` (centres undefined) yielded a cell number change of 8.7%.

For `CCCCNC(=O)C(CC)(ONc1ccccc1C(F)(F)F)c1ccccc1OC` (centres undefined), the cell number change was -43.3%, the AC50 [1] was 13000 nM [falling, partial curve] and the AC50 [2] was 2060 nM [rising, partial curve, poor fit].

In the case of `O=C1O[C@H]([C@@H](O)CO)C(O)=C1O`, the AC50 [1] is reported as 2910 nM [rising, single point].
